# Test results published in PubChem BioAssay AID2685 (National Center for Advancing Translational Sciences (NCATS), 2010).
# This is one part of the list. These are further read-outs of the screen, such as a control signal, another cell line or another target. No call is given for them. Compounds called inactive in the main read-out are mostly missing here. Potencies come from curve fits of mixed quality, noted in brackets.
# Test: qHTS Assay for Lipid Storage Modulators in Drosophila S3 Cells;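 on cell number change: cells counted by Cell Tracker Red CMTPX staining in the red channel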
# Conditions: BODIPY lipid droplet fluorescence, 18-24 h; for cell number change: measured here: cell count max response, cells fed with added oleic acid
# Outline: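 Drosophila S3 cells loaded with oleic acid (400 uM, as added) and compounds at several concentrations; lipid droplets imaged by 488-nm laser-scanning cytometry, 500–530 nm intensity and object ratio to cell channel. Percent activity normalized to 20 uM Triacsin C.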
# [1] = measured here: cell number channel AC50, cells fed with added oleic acid
# [2] = measured here: lipid fluorescence (Fed channel) AC50, cells fed with added oleic acid
SMILES,cell number change [%],AC50 [1],AC50 [2]
N#C/C=C(/N)c1ccc(Br)cc1,71.8,"25.9 µM [rising, single point]","25.9 µM [rising, single point]"
O=C(Nc1ccc(Oc2cccnc2)cc1)C1CCN(Cc2cc(Cl)ccc2O)CC1,-54.1,"29.1 µM [falling, single point]","29.1 µM [falling, single point]"
Nc1nc(Nc2ccccc2Cl)cc(=O)[nH]1,11.4,,"6.51 µM [rising, single point]"
Cc1ccc2cc(CN(CC(C)C)C(=O)C3CCCO3)c(=O)[nH]c2c1 (stereo unspecified),,"3.26 µM [rising, single point]","2.91 µM [rising, partial curve]"
CCc1ccccc1NC(=O)N1CCCC(CCC(=O)N(C)CCc2ccccn2)C1 (stereo unspecified),23.2,,"9.2 µM [rising, partial curve]"
COc1cc(Cl)c(S(=O)(=O)NCCCN2CCOCC2)cc1Cl,14.5,,"4.11 µM [falling, single point]"
COc1ccccc1N1CCN(C2CCN(C(=O)c3cccc(F)c3)CC2)CC1,53.5,"14.6 µM [rising, single point]","16.4 µM [rising, partial curve, poor fit]"
COc1ccc(-c2nn(-c3ccccc3)cc2/C=N/NC(=O)c2ccc(Br)o2)cc1,-56.9,"9.2 µM [falling, partial curve]","4.11 µM [falling, partial curve]"
COc1cc(C(=O)N/N=c2/sc3ccccc3n2C)cc(OC)c1OC,12,,"29.1 µM [rising, single point]"
CN1CCN(c2nc(-c3ccc(C(C)(C)C)cc3)nc3ccccc23)CC1,-62.3,"18.4 µM [falling, partial curve]","18.4 µM [falling, single point]"
Cc1cccc(NC(=O)c2cccc(Cn3cc(Br)c([N+](=O)[O-])n3)c2)c1C,56.5,"7.31 µM [rising, partial curve, poor fit]","23.1 µM [rising, partial curve]"
O=c1cc(-c2ccccc2Cl)oc2c(Br)ccc(O)c12,8.5,,"9.2 µM [rising, partial curve]"
CCOC(=O)c1nc(Nc2ccc(C(=O)OC)cc2)c2ccccc2n1,-35.1,,"23.1 µM [falling, partial curve]"
Cn1c(N)c(C(=O)COC(=O)CC2CC3CCC2C3)c(=O)n(C)c1=O (stereo unspecified),,"0.731 µM [falling, single point]","0.731 µM [falling, single point]"
Cc1c(O)ccc2c(=O)c(-c3nncn3-c3ccccc3)coc12,12.4,,
O=c1[nH]c(CSc2ccccn2)nc2c1cnn2-c1ccccc1,11.8,,"6.51 µM [rising, single point]"
O=c1[nH]c(CN2CCc3ccccc32)nc2scc(-c3cccs3)c12,-10.5,,"4.11 µM [rising, full curve, poor fit]"
C=C(C)CSc1nnc(CCNC(=O)OC(C)(C)C)o1,5.97,,"6.51 µM [rising, partial curve]"
CCOc1cc(-c2c(C#N)c(N)nc3c2CCc2ccccc2-3)ccc1O,-34.7,"29.1 µM [falling, single point]","23.1 µM [falling, single point]"
Nc1nc(Oc2ccc(F)cc2)c(Br)c(=O)[nH]1,13.2,,"3.66 µM [rising, single point]"

SMILES,cell number change [%],AC50 [1],AC50 [2]
COC(=O)c1ccc(CC(=O)c2ccc(O)cc2O)o1,21,,"29.1 µM [rising, single point]"
CC(C)CC(=O)NCCc1ccncc1,-79.5,"18.4 µM [falling, partial curve, poor fit]",
C=CCn1c(SCCN2C(=O)c3ccccc3C2=O)nc2scc(-c3ccccc3)c2c1=O,15.4,,"6.51 µM [falling, single point]"
Cc1ccc(NC(=S)NCc2cccs2)c(C)c1,,"0.731 µM [rising, single point]","6.51 µM [rising, single point]"
Cc1cc(-c2n[nH]c(=S)n2-c2ccc(F)cc2)nn1C,-22.1,,"0.00461 µM [falling, full curve, poor fit]"
O=C(COC(=O)c1ccc(F)cc1)NC1CC1,-0.0705,,"1.64 µM [rising, single point]"
COc1ccc2c(c1)nc1n2CN(CC2CCCO2)CN1Cc1ccccc1 (stereo unspecified),22.5,,"16.4 µM [rising, single point]"
CCOC(=O)c1nnc(-c2ccccc2)nc1Oc1ccccc1Cl,19.2,,"29.1 µM [falling, single point]"
CC(=O)N1CCOc2ccc(S(=O)(=O)NCC3CCC(C(=O)Nc4ncccc4C)CC3)cc21 (stereo unspecified),-24.5,,"29.1 µM [rising, single point]"
CC(=O)N1c2ccc(S(=O)(=O)N3CCC(C(=O)Nc4ccccn4)CC3)cc2CC1C (stereo unspecified),27.8,,
Cc1ccc2nc(C)cc(N/N=C/c3ccccc3O)c2c1,-30.3,"29.1 µM [falling, single point]","29.1 µM [falling, single point]"
CCCCCOc1ccc(NC(=O)CCCC(=O)O)cc1,-7.68,"1.3 µM [falling, partial curve]","1.46 µM [falling, partial curve]"
Cc1cc(C)cc(OCC(=O)Nc2ccccc2C(=O)N2CCOCC2)c1,-14.1,,"29.1 µM [falling, single point]"
COc1cc(/C=C(/C#N)c2nc3ccccc3[nH]2)ccc1OCc1ccc(C(=O)O)o1,3.33,,"4.11 µM [rising, full curve, poor fit]"
COc1ccc(C(=O)Nc2ccc(S(=O)(=O)Nc3cc(C)nc(C)n3)cc2)c(OC)c1,-15.7,,"20.6 µM [rising, single point]"
CCCCNCCCOc1cccc(Cl)c1,-8.67,,"25.9 µM [falling, partial curve]"
CCCn1c(SCC(=O)NNC(=O)c2ccc(OC)cc2)nnc1C(C)C,19.2,,"1.16 µM [rising, single point]"
O=C(N/N=C/c1ccc(-c2ccc(Br)cc2)o1)c1ccc2c(c1)OCO2,19.5,"1.84 µM [rising, partial curve, poor fit]",
CC(Cc1cccs1)NC(=S)Nc1ccc(Cl)cc1 (stereo unspecified),,,"29.1 µM [falling, single point]"
O=C(Cn1nc(Cl)nc1Cl)c1cc2ccccc2oc1=O,-27.5,,"16.4 µM [rising, single point]"

# Five entries out of the list, ordered by number of heavy atoms, smallest number first.
SMILES,cell number change [%],AC50 [1],AC50 [2]
CCCCNCCCOc1cccc(Cl)c1,-8.67,,"25.9 µM [falling, partial curve]"
CC(Cc1cccs1)NC(=S)Nc1ccc(Cl)cc1 (stereo unspecified),,,"29.1 µM [falling, single point]"
Cc1cc(-c2n[nH]c(=S)n2-c2ccc(F)cc2)nn1C,-22.1,,"0.00461 µM [falling, full curve, poor fit]"
Cc1cc(C)cc(OCC(=O)Nc2ccccc2C(=O)N2CCOCC2)c1,-14.1,,"29.1 µM [falling, single point]"
COc1ccc2c(c1)nc1n2CN(CC2CCCO2)CN1Cc1ccccc1 (stereo unspecified),22.5,,"16.4 µM [rising, single point]"

# (continued)

SMILES,cell number change [%],AC50 [1],AC50 [2]
O=C(c1ccccc1)N1CCCC(c2nc3c(nnn3Cc3ccccc3)c(=O)[nH]2)C1 (stereo unspecified),,,"29.1 µM [rising, single point]"
Cc1ccc(S(=O)(=O)N(C)c2ccc(C(=O)NCCc3ccccc3)cc2)cc1,,,"29.1 µM [falling, single point]"
CCOC(=O)CCCNC(=O)CSc1nnc(-c2ccccc2)c(-c2ccccc2)n1,9.91,,
CC1c2c([nH]c3ccccc23)CCC1C(=O)O (stereo unspecified),-52.7,"29.1 µM [falling, single point]","0.58 µM [falling, full curve, poor fit]"
COc1ccc(-c2nnn(CCc3nn[nH]n3)n2)cc1OC,-57.6,"29.1 µM [falling, single point]",
CCOC(=O)N1CCC(NC(=O)Cn2cccc2C(=O)c2ccccc2)CC1,-45.9,"20.6 µM [falling, single point]",
COc1cc(OC)c(NC(=O)C2CCN(S(=O)(=O)c3ccc4c(c3)CC(C)N4C(C)=O)CC2)cc1Cl (stereo unspecified),21.8,,
Cc1ccc(N(C(=O)c2csnn2)C(C(=O)NC2CCCCC2)c2cccnc2)cc1 (stereo unspecified),-14.3,,"4.11 µM [rising, partial curve]"
CCOc1ccc(Oc2c(/C=N/NC(N)=O)c(C)nn2-c2ccccc2)cc1,,,"5.8 µM [rising, partial curve]"
Cc1ccccc1NC(=S)NCc1cccn1C,-24.1,"0.184 µM [falling, full curve, poor fit]",
CCOC(=O)C(=CNc1ccccc1C)C(=O)OCC,,"6.51 µM [rising, single point]",
CCCCCCSc1ccc([C@@H]2[C@H]3C(=O)N(CC)C(=O)[C@H]3[C@]3(C(=O)OC)CCCN23)cc1,,,"2.31 µM [falling, single point]"
O=C(CCN1C(=O)/C(=C\c2cccs2)SC1=S)Nc1ccc(C(=O)O)cc1,22.7,,
COc1ccc(O)c(C(=O)c2cnc3onc(C(C)C)c3c2)c1,-10.3,,"0.058 µM [falling, partial curve, poor fit]"
O=C(NC1CCCc2ccccc21)c1ccc(S(=O)(=O)N2CCOCC2)cc1 (stereo unspecified),10,"0.116 µM [falling, full curve, poor fit]","0.58 µM [falling, full curve]"
COC(=O)c1ccc(NC(=S)N2CCN(C)CC2)cc1,-9,"0.731 µM [falling, partial curve]",
CNC(=O)c1c(NC(=O)c2ccc(S(=O)(=O)N3CCCCC3C)cc2)sc2c1CCN(C)C2 (stereo unspecified),7.5,"1.84 µM [falling, partial curve]","2.31 µM [falling, partial curve]"
CCOc1cc(/C=C2/C(=N)N3C(=NC2=O)SN=C3S(C)(=O)=O)ccc1OC(=O)c1ccco1,,,"6.51 µM [falling, single point]"
